Here are results for two molecules from paper PMC3371038.

Experiment [1] concerns the target E-cadherin (human (endogenous in T84)). The experiment is described as follows: co-IP; anti-E-cadherin immunoprecipitation from T84 cells lysed in high-salt-containing buffer; unstimulated or IFNγ-treated; immunoblot. On the technique in general: In western blotting, separated proteins are transferred to a membrane and probed.
Experiment [2] shares this target. The experiment is described as follows: co-IP; anti-E-cadherin antibody (monoclonal, C-terminal epitope) and protein A-agarose on detergent-free low-salt (hypotonic Buffer A) lysates of T84 cells; unstimulated, IFNγ 10 ng/ml 6 h, IFNγ + PP1 125 nM; immunoblot.
Experiment [3] shares this target. Nature of the experiment: co-IP; anti-E-cadherin antibody (2 µg/ml, overnight, 4°C) and protein A-agarose on RIPA lysates (400 µg) of T84 cells; IFNγ 10 ng/ml 24 h, control or Fyn siRNA; immunoblot.

Results are given in words; binding and its absence hold for the method and conditions named. Binding seen in cells or lysates may run through a third protein. Binding calls can cover weak binding; strength is not graded here.

B1: p120-catenin (protein, UniProt O60716 1-968)
chain: MDDSEVESTASILASVKEQEAQFEKLTRALEEERRHVSAQLERVRVSPQDANPLMANGTLTRRHQNGRFVGDADLERQKFSDLKLNGPQDHSHLLYSTIPRMQEPGQIVETYTEEDPEGAMSVVSVETSDDGTTRRTETTVKKVVKTVTTRTVQPVAMGPDGLPVDASSVSNNYIQTLGRDFRKNGNGGPGPYVGQAGTATLPRNFHYPPDGYSRHYEDGYPGGSDNYGSLSRVTRIEERYRPSMEGYRAPSRQDVYGPQPQVRVGGSSVDLHRFHPEPYGLEDDQRSMGYDDLDYGMMSDYGTARRTGTPSDPRRRLRSYEDMIGEEVPSDQYYWAPLAQHERGSLASLDSLRKGGPPPPNWRQPELPEVIAMLGFRLDAVKSNAAAYLQHLCYRNDKVKTDVRKLKGIPVLVGLLDHPKKEVHLGACGALKNISFGRDQDNKIAIKNCDGVPALVRLLRKARDMDLTEVITGTLWNLSSHDSIKMEIVDHALHALTDEVIIPHSGWEREPNEDCKPRHIEWESVLTNTAGCLRNVSSERSEARRKLRECDGLVDALIFIVQAEIGQKDSDSKLVENCVCLLRNLSYQVHREIPQAERYQEAAPNVANNTGPHAASCFGAKKGKDEWFSRGKKPIEDPANDTVDFPKRTSPARGYELLFQPEVVRIYISLLKESKTPAILEASAGAIQNLCAGRWTYGRYIRSALRQEKALSAIADLLTNEHERVVKAASGALRNLAVDARNKELIGKHAIPNLVKNLPGGQQNSSWNFSEDTVISILNTINEVIAENLEAAKKLRETQGIEKLVLINKSGNRSEKEVRAAALVLQTIWGYKELRKPLEKEGWKKSDFQVNLNNASRSQSSHSYDDSTLPLIDRNQKSDKKPDREEIQMSNMGSNTKSLDNNYSTPNERGDHNRTLDRSGDLGDMEPLKGTTPLMQDEGQESLEEELDVLVLDDEGGQVSYPSMQKI
With B1, the binding entry in experiment [1] and in experiment [2] was “binds” throughout.

B2: E3 ubiquitin ligase Hakai (enzyme, UniProt Q75N03 1-491)
chain: MDHTDNELQGTNSSGSLGGLDVRRRIPIKLISKQANKAKPAPRTQRTINRMPAKAPPGDEEGFDYNEEERYDCKGGELFANQRRFPGHLFWDFQINILGEKDDTPVHFCDKCGLPIKIYGRMIPCKHVFCYDCAILHEKKGDKMCPGCSDPVQRIEQCTRGSLFMCSIVQGCKRTYLSQRDLQAHINHRHMRAGKPVTRASLENVHPPIAPPPTEIPERFIMPPDKHHMSHIPPKQHIMMPPPPLQHVPHEHYNQPHEDIRAPPAELSMAPPPPRSVSQETFRISTRKHSNLITVPIQDDSNSGAREPPPPAPAPAHHHPEYQGQPVVSHPHHIMPPQQHYAPPPPPPPPISHPMPHPPQAAGTPHLVYSQAPPPPMTSAPPPITPPPGHIIAQMPPYMNHPPPGPPPPQHGGPPVTAPPPHHYNPNSLPQFTEDQGTLSPPFTQPGGMSPGIWPAPRGPPPPPRLQGPPSQTPLPGPHHPDQTRYRPYYQ
As to B2, the binding result in experiment [3] is on record as “binds”.
